Values of other authors as cited in patent US20130018223A1, “METHOD FOR TIMING A COLONOSCOPY” (priority 2011, published 2013).
At least one compound was matched to its structure with a doubt left.

[O]=[Mg] [Magnesium oxide]
solubility in water: 1 in 50
